Sequences and labels used below:
B1: ARHGEF2 (endogenous, MDCK) (protein, UniProt Q865S3 1-986)
chain: MSRIESLTRARTERSRELASKNREKEKMKEAKDARYTNGHLFTTISVSGMTMCYACNKSITAKEALICPTCNVTIHNRCKDTLANCTKVKQKQQKAALLKNSTALQSVSLRSKTTPRERPSSAIYPSDSFRQSLLGSRRGRSSLSLAKSVSTTNIAGHFSDESPLGLRRILSQSTDSLNMRNRALSVESLIDEGAEVIYSELMSDFETDERDFAADSWSLAVDSSFLQQQKKEVMKQQDVIYELIQTELHHVRTLKIMTRLFRTGMLEELQLEPGVVQGLFPCVDELSDIHTRFLSQLLERRRQALCPGSTRNFVIHRLADLLISQFSGPSAERMRKAYSEFCSRHTKALKLYKELYARDKRFQQFIRKVTRSAVLKRHGVQECILLVTQRITKYPVLINRILQHSHGTDEERQDLTTALGLVKELLSNVDQDVHELEKGARLQEIYHRMDPRAQAPVPSKGPFGREELLRRKLIHDGCLLWKTATGRFKDVLMLLMTDVLVFLQEKDQKYIFPALDKPSVVSLQNLIVRDIANQEKGMFLISAAPPEMYEVHTASRDDRSTWVRVIQQSVRVCPSREDFPLIETEDEAYLRRIKMELQQKDKALVELLREKVGLFAEMTHFQVEEDSGGVALPALPRGLFRSESLECPRGERLLQDAIREVEGLKDLLVGPGVELLLTPRDPALLVDPDSGGSTSPGVTANGEARNFNGSIELCRTDSDSSQKDRNGNQLRAPQEEALQRLVNLYGLLHGLQAAVAQQDTLMEARFPEGPERREKLARANSRDGEAGRVGPAPVAPDKQATELALLQRQHALLQEELRRCRRLGEERATEAGNLEARLRESEQARALLEREAEEARRQLAILGQSEPPPAEAPWARRPLDPRRRSLPAGDALYLSFTPPQPSRGHDRLDLSVTIRSVHRPFEDRERQELGSPEERLQDSSDPDTGSEEEGGGRLSPPHSPRDFTRMQDIPEETESRDGEPMVSES

Results are given in words; binding and its absence hold for the method and conditions named. Binding seen in cells or lysates may run through a third protein. A yes stands for co-enrichment or nearness to the bait. Other partners may have been found. Tags and fused reporters may be left off the sequences shown.

The target of one experiment is T1, HALO-tagged WT Borg5 (Borg5-TEV-HALO) (mouse) (UniProt Q91W92).
T1 sequence: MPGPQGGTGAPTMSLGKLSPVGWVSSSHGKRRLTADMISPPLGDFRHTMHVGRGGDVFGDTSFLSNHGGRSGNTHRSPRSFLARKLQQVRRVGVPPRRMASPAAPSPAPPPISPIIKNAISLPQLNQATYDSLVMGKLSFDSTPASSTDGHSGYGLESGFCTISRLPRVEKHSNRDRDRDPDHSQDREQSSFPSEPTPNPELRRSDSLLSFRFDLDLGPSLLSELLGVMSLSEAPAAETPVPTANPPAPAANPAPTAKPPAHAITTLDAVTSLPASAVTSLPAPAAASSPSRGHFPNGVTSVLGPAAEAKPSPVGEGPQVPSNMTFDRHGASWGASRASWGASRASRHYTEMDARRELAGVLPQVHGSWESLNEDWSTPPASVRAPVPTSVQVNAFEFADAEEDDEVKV
The experiment can be described thus: affinity purification with mass spectrometry; Borg5-TEV-HALO captured on HALO-Trap agarose from Triton X-100 lysates of transfected MDCK cells (10 mM Tris-HCl pH 7.5, 150 mM NaCl, 0.5 mM EDTA, 1 mM DTT), 2 h at 4°C, released by TEV protease; mock-transfected cells as control; three experiments.
Turning to α-actinin 1 (endogenous, MDCK), the binding entry is “binds”.
Still for that read-out and setting: under septin 2 (endogenous, MDCK) stands “binds”; under filamin A (endogenous, MDCK), “binds”.
Same read-out and setting: the same measure for septin 9 (endogenous, MDCK): “binds”; for septin 7 (endogenous, MDCK): “binds”.

A further experiment deals with T1, HALO-tagged WT Borg5 (Borg5-TEV-HALO) (mouse). The experiment is described as above. This is another data set of the same source.
Take B1: the binding result is on record as “binds”.

The values are drawn from publication PMC11698036, “Borg5 restricts contractility and motility in epithelial MDCK cells” (Journal of Cell Science, 2024).
